Test results reported in patent US20130039933A1.
Results are given in words; binding and its absence hold for the method and conditions named. Some entries that bind do so weakly or less than the wild type. Where a sequence is shown, tags or fusion partners need not be part of it.

Chains of the proteins cited; added tags and fusions are not shown. Lines headed by an entry give the natural chain unless they say otherwise; changes in a name come on top.
UniProt P04386: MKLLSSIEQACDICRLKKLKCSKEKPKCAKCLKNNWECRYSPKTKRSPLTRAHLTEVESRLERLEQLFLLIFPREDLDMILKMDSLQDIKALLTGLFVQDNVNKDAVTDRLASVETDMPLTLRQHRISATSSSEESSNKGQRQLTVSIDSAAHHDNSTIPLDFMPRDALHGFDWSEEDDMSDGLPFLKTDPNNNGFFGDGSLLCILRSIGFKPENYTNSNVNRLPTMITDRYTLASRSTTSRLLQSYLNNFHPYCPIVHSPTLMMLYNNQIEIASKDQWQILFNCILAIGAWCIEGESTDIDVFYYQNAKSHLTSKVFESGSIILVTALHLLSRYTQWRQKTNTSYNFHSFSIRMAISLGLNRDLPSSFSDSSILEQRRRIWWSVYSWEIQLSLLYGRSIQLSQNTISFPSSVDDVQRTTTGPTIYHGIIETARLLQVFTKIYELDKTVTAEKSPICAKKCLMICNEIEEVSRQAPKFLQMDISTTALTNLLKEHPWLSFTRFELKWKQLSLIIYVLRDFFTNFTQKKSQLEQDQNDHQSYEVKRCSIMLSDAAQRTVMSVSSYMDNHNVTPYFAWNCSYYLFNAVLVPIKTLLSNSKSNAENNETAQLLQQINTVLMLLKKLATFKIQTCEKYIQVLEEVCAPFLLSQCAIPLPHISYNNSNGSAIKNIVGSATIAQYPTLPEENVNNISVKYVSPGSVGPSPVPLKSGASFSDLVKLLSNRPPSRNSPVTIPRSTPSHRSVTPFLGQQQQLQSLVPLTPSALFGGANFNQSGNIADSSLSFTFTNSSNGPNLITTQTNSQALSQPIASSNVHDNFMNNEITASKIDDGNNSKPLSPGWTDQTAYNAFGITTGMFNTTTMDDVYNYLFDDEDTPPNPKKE

Columns and labels:
[1] = biological target: T1, RPN1 (Ribophorin I) fused to the GAL4 activation domain (yeast; human) (UniProt P04843); assay: yeast two-hybrid screen with full length TREX1 as bait
T1 sequence (looked up): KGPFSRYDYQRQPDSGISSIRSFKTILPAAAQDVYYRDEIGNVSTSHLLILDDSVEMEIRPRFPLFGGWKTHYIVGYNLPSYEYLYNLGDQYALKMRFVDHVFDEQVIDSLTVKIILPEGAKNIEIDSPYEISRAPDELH

[2] = biological target: T1, RPN1 (Ribophorin I) fused to the GAL4 activation domain (yeast; human); assay: yeast two-hybrid

Q: “Full length TREX1 fused to the GAL4 binding domain (pGBKT7-TREX1) (from UniProt P04386 1-147; Q9NSU2 1-369) (enzyme)” was tested. Which binding [1] did it give?
A: binds

Q: What about the binding [2] of the same substance?
A: binds
